Laboratory results from article PMC5467045.
Results are given in words; binding and its absence hold for the method and conditions named. In cells and extracts the contact can be indirect. Some results given as binding are weak or reduced against the parent protein; the word gives no strength.

By UniProt entry, the sequences of proteins in these tests, tags left out.
UniProt P10417: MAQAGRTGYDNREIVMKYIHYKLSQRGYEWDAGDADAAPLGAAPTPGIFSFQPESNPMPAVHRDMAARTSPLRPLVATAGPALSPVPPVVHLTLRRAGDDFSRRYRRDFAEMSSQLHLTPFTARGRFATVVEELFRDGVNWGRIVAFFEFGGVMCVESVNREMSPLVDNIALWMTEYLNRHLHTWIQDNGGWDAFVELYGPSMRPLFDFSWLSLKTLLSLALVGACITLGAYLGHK
UniProt O54918: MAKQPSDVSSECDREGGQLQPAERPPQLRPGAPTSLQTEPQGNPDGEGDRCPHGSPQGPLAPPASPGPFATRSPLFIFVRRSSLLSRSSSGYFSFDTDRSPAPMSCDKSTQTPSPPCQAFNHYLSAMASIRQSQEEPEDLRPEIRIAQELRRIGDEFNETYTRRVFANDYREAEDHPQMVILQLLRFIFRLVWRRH

Target: Bcl-2 (mouse (endogenous in Eμ-Tcl1 Tg leukemia cells)) (UniProt P10417)
Test: co-IP; lysates of Eμ-Tcl1 Tg leukemias cultured for 24 or 36 h with GS-9820 (0.6 μM) or vehicle control; immunoprecipitation with an anti-Bcl-2 mAb or an isotype control; Bim co-immunoprecipitation assessed by western blot

binding: binds
Substance: Bim (from UniProt O54918 1-196)
